Results reported in the supplement of paper PMC10849652.
Some of the results follow.

Sequences of proteins named here, by UniProt entry; tags and fusion partners are left off. A change or cut given only in a name is not applied to a line headed by its entry.
UniProt Q9NQ11: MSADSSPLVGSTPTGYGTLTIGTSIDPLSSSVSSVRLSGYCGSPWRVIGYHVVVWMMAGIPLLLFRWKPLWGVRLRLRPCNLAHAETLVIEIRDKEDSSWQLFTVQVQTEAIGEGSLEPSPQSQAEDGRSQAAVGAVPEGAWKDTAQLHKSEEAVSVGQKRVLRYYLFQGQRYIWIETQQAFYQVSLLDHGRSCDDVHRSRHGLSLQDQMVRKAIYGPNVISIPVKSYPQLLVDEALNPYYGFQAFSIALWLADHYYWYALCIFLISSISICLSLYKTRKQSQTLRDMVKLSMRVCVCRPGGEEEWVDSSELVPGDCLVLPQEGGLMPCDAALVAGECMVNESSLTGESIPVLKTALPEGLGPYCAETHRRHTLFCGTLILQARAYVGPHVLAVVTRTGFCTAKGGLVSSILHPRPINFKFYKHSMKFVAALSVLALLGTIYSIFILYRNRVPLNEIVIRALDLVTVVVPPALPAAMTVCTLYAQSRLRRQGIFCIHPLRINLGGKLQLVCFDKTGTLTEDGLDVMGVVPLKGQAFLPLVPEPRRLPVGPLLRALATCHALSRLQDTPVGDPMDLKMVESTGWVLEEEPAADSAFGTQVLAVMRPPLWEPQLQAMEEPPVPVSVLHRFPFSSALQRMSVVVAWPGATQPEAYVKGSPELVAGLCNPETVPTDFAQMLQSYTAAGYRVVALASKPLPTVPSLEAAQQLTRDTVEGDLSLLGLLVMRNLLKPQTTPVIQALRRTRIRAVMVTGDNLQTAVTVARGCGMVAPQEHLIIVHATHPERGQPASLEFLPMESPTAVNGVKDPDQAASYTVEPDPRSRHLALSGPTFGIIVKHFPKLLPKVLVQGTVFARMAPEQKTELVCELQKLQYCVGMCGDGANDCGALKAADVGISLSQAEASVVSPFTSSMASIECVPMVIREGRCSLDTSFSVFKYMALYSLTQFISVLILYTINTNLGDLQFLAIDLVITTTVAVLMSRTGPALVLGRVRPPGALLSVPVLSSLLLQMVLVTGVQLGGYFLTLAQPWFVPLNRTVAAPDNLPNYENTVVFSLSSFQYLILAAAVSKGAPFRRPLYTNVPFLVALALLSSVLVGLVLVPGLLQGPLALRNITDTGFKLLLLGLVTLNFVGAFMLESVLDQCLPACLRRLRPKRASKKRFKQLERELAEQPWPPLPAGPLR
UniProt Q96IX5: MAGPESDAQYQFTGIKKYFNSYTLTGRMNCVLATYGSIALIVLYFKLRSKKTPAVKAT
UniProt Q7L266: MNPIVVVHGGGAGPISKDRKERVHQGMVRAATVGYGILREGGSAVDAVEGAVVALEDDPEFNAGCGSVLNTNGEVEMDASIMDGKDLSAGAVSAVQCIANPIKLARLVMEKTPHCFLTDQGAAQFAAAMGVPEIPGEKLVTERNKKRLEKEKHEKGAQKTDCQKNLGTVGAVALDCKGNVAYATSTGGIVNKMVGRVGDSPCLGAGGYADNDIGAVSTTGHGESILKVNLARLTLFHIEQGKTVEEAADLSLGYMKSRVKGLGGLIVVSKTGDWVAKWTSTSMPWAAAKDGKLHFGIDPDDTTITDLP
UniProt Q6VMQ6: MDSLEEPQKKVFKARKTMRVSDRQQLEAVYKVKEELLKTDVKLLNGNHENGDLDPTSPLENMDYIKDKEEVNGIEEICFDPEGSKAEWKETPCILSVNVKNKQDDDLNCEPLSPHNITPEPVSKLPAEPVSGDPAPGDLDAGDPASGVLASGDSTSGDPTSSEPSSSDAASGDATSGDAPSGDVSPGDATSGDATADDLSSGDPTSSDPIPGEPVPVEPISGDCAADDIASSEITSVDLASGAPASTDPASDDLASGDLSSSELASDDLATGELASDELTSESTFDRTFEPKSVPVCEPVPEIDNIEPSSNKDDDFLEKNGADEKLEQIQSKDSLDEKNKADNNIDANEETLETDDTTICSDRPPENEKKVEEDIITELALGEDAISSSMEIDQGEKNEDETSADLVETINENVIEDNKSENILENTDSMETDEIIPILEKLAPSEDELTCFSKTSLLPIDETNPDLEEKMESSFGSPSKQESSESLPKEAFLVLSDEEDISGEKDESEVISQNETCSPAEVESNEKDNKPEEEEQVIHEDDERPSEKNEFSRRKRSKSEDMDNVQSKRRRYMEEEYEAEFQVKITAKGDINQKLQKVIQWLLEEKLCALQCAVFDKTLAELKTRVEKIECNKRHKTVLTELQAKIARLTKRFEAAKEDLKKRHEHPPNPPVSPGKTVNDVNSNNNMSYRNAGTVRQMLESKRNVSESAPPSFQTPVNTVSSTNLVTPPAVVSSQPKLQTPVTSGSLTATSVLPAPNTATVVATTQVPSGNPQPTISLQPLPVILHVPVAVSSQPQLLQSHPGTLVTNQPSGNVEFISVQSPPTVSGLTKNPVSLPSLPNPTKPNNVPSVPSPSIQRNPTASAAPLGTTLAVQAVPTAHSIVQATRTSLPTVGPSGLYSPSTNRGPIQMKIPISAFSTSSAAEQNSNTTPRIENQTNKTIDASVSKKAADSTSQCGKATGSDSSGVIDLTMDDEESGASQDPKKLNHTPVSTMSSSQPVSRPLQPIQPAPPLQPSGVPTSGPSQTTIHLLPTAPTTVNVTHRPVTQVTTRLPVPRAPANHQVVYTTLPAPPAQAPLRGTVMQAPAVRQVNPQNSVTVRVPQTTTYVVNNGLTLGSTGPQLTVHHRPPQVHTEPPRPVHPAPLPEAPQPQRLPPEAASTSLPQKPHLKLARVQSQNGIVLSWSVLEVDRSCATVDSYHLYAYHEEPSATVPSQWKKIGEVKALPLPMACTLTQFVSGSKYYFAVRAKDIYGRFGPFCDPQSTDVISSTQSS
UniProt P16615: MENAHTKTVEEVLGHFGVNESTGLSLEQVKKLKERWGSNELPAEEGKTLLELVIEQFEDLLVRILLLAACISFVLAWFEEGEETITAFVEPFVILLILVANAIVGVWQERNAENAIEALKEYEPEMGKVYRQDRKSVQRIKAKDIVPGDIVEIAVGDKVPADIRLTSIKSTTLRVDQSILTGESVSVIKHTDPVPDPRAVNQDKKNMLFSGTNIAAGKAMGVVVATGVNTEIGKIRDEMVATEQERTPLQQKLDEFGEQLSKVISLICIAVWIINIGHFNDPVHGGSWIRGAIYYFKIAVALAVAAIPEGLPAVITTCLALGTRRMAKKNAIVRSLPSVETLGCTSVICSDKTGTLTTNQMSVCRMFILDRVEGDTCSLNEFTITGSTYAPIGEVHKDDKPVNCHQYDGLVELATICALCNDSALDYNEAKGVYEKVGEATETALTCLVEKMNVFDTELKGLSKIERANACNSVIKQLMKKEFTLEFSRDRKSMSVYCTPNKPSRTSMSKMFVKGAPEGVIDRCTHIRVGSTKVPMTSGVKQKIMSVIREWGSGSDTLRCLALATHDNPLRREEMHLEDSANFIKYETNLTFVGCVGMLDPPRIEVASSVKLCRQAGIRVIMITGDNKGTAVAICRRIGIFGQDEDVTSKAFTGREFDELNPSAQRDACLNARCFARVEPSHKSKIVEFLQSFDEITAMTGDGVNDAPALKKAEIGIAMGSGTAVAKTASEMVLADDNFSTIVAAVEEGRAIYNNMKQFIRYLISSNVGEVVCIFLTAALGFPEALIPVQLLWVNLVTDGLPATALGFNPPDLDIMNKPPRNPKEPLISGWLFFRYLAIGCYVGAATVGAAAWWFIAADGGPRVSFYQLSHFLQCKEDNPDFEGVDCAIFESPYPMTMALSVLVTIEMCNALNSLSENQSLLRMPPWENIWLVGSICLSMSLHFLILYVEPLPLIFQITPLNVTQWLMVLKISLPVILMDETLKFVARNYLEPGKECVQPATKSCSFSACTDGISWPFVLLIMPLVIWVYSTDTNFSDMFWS
UniProt Q5TC12: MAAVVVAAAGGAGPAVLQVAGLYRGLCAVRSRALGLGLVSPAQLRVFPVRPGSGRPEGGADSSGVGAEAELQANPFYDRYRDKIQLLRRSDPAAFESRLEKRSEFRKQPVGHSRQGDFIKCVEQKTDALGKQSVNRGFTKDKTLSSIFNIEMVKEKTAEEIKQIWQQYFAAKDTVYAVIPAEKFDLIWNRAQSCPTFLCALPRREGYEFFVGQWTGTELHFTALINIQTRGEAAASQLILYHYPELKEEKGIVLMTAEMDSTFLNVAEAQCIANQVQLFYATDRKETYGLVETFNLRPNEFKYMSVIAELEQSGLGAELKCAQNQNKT
UniProt P48047: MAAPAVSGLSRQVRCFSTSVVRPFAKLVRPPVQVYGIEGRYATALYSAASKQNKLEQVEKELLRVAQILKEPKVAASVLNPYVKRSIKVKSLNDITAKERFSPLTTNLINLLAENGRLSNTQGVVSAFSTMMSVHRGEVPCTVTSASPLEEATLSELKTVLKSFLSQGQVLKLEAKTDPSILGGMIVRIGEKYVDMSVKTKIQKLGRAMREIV
UniProt Q9H1I8: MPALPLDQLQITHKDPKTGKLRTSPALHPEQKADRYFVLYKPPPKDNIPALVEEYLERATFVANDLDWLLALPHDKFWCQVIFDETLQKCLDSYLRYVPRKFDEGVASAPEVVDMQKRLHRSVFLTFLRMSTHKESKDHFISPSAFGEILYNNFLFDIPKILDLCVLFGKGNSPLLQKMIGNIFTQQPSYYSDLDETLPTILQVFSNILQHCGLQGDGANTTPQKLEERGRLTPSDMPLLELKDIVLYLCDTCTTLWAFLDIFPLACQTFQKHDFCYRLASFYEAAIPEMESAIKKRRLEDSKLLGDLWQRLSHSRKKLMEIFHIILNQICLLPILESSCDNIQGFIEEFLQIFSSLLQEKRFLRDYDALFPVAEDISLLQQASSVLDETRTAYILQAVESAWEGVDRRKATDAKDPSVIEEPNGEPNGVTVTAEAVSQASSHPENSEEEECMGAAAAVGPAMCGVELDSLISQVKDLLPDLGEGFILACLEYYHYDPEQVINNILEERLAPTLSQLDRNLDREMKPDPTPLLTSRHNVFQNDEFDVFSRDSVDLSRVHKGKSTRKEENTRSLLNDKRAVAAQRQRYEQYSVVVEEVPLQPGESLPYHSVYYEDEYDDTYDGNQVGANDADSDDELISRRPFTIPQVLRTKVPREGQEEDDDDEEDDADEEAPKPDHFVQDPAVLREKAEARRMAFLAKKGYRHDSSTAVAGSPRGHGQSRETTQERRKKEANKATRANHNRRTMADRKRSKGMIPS
UniProt Q9H6S1, whole entry, looked up: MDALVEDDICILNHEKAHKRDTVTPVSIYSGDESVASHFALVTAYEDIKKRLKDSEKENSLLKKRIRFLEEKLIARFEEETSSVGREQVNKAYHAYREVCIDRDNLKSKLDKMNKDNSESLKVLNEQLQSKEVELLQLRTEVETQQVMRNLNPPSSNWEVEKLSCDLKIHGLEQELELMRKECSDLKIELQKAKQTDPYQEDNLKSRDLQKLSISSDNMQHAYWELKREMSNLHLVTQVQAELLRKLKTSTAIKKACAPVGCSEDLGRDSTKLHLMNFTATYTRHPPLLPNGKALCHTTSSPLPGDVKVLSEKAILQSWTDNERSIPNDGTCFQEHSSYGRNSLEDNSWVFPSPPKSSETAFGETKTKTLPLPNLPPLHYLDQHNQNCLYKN
UniProt Q13733, whole entry, looked up: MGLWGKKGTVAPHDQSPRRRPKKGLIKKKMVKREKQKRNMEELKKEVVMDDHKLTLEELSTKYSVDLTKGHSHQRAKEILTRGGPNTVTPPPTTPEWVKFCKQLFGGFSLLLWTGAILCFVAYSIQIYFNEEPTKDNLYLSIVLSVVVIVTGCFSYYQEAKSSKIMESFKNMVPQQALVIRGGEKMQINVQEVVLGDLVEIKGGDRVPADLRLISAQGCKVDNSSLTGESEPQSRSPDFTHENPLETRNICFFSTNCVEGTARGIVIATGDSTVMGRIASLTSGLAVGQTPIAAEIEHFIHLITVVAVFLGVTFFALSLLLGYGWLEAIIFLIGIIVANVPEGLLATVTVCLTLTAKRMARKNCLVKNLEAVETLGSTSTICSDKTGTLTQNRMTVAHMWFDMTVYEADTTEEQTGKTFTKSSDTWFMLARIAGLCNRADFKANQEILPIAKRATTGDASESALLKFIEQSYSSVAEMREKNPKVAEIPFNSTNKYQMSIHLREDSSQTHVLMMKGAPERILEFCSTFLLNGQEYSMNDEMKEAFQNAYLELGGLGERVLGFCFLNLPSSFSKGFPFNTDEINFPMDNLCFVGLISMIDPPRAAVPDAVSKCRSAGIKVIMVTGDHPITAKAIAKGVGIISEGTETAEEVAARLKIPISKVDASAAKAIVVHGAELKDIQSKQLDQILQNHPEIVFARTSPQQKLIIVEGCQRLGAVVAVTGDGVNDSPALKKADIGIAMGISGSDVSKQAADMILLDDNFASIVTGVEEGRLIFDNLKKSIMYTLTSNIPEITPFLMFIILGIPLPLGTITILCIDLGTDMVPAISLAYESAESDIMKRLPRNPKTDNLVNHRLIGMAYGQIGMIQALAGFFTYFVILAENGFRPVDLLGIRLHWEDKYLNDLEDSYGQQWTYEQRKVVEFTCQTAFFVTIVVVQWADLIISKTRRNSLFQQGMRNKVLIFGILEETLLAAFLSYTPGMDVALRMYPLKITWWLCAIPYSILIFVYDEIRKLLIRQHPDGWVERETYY

How the values were obtained:
Assay in all cases: log2 fold change, soluble protein after heating vs DMSO (PISA); higher = thermal stabilisation; K562 lysate, 10 uM; active = over 0.2 and 3.5 SD of the protein, either way, in both replicates (recomputed)
vemurafenib = compound: CCCS(=O)(=O)Nc1ccc(F)c(C(=O)c2c[nH]c3ncc(-c4ccc(Cl)cc4)cc23)c1F [vemurafenib]
How it was run: (§1)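 A 30 min treatment with 10 μM compound was applied to crude K562 extract at 1 mg/mL protein in PBS pH 7.4 with 1 mM MgCl2. Heating for 3 min spanned 48°C-58°C, after which aliquots were pooled, adjusted to 0.5% NP-40 at 4°C and spun at 21,000xg for 90 min. TMTpro 16plex LC-MS/MS of the supernatant, with channel sums equalised, gave values recorded as log-two fold change in thermal stability against solvent controls, from duplicates.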

[1] = compound: CCCS(=O)(=O)Nc1ccc(F)c(C(=O)c2c[nH]c3ncc(Cl)cc23)c1F
How it was run: as §1

barasertib = compound: CCN(CCCOc1ccc2c(Nc3cc(CC(=O)Nc4cccc(F)c4)[nH]n3)ncnc2c1)CCOP(=O)(O)O [barasertib]
How it was run: as §1

[2] = compound: CC[C@@H]1C(=O)N(C)c2cnc(Nc3ccc(C(=O)NC4CCN(C)CC4)cc3OC)nc2N1C1CCCC1
How it was run: as §1

volasertib = compound: CC[C@@H]1C(=O)N(C)c2cnc(Nc3ccc(C(=O)N[C@H]4CC[C@H](N5CCN(CC6CC6)CC5)CC4)cc3OC)nc2N1C(C)C [volasertib]
How it was run: as §1

[3] = compound: CCn1c(C(=O)N(C2CC2)C2CC2)cc2c3c(ncn3C)c(Nc3cc(C)n(C)n3)nc21
How it was run: as §1

[4] = compound: CCn1cc(-c2ccnc3[nH]c(-c4cccc(CN(C)C)c4)cc23)c(-c2ccc(NC(=O)N(C)C)cc2)n1
How it was run: as §1

[5] = compound: CN1CCC(CNc2ccc3ncc(-c4cccc(OC(F)(F)F)c4)n3n2)CC1
How it was run: as §1

saracatinib = compound: CN1CCN(CCOc2cc(OC3CCOCC3)c3c(Nc4c(Cl)ccc5c4OCO5)ncnc3c2)CC1 [saracatinib]
How it was run: as §1

sotrastaurin = compound: CN1CCN(c2nc(C3=C(c4c[nH]c5ccccc45)C(=O)NC3=O)c3ccccc3n2)CC1 [sotrastaurin]
How it was run: as §1

alvocidib = compound: CN1CC[C@H](c2c(O)cc(O)c3c(=O)cc(-c4ccccc4Cl)oc23)[C@H](O)C1 [alvocidib]
How it was run: as §1

Tubastatin A = compound: CN1CCc2c(c3ccccc3n2Cc2ccc(C(=O)NO)cc2)C1 [Tubastatin A]
How it was run: as §1

[6] = compound: CNC(=O)C1=CC=CC=C1NC2=NC(=NC=C2Cl)NC3=C(C=C(C=C3)N4CCOCC4)OC
How it was run: as §1

defactinib = compound: CNC(=O)c1ccc(Nc2ncc(C(F)(F)F)c(NCc3nccnc3N(C)S(C)(=O)=O)n2)cc1 [defactinib]
How it was run: as §1

[7] = compound: CNc1nc(-c2ccc3c(N)n[nH]c3c2)cc(N2C[C@@H](C(=O)NC3CCCCC3)CC[C@H]2C)n1
How it was run: as §1

encorafenib = compound: COC(=O)N[C@@H](C)CNc1nccc(-c2cn(C(C)C)nc2-c2cc(Cl)cc(NS(C)(=O)=O)c2F)n1 [encorafenib]
How it was run: as §1

[8] = compound: COC(=O)[C@H](CCSC)NC(=O)C1=C(C=C(C=C1)NC[C@H](CS)N)C2=CC=CC=C2
How it was run: as §1

alisertib = compound: COc1cc(Nc2ncc3c(n2)-c2ccc(Cl)cc2C(c2c(F)cccc2OC)=NC3)ccc1C(=O)O [alisertib]
How it was run: as §1

[9] = compound: COc1cc2nc(-c3cc(F)ccc3O)nc(N[C@@H]3CNC[C@H]3C(C)(C)O)c2cc1OC
How it was run: as §1

gefitinib = compound: COc1cc2ncnc(Nc3ccc(F)c(Cl)c3)c2cc1OCCCN1CCOCC1 [gefitinib]
How it was run: as §1

Measured: log2 fold change

ATP13A2 (UniProt Q9NQ11)
inactive: vemurafenib 0.02 | [1] 0.037 | barasertib 0 | [2] 0.066 | volasertib -0.011 | [3] -0.032 | [4] -0.035 | [5] 0.03 | saracatinib -0.03 | sotrastaurin 0.1 | alvocidib 0.01 | Tubastatin A 0.097 | [6] -0.022 | defactinib 0.008 | [7] 0.045 | encorafenib 0.026 | [8] -0.005 | alisertib 0.024 | [9] 0.023 | gefitinib -0.027

ATP6V1C1 (UniProt P21283)
inactive: vemurafenib -0.054 | [1] -0.006 | barasertib 0.007 | [2] -0.036 | volasertib 0.003 | [3] -0.004 | [4] 0.015 | [5] -0.013 | saracatinib -0.008 | sotrastaurin -0.021 | alvocidib 0.036 | Tubastatin A 0.02 | [6] -0.012 | defactinib 0.001 | [7] -0.027 | encorafenib -0.016 | [8] -0.01 | alisertib -0.019 | [9] -0.007 | gefitinib -0.013

ASMTL (UniProt O95671)
inactive: vemurafenib 0.003 | [1] 0.019 | barasertib 0.031 | [2] -0.036 | volasertib -0.023 | [3] -0.001 | [4] -0.016 | [5] 0.046 | saracatinib 0.026 | sotrastaurin 0.056 | alvocidib -0.03 | Tubastatin A -0.118 | [6] 0.011 | defactinib -0.011 | [7] -0.022 | encorafenib -0.006 | [8] 0.116 | alisertib 0.004 | [9] 0.025 | gefitinib 0.042

ATP5MD (UniProt Q96IX5)
inactive: vemurafenib -0.103 | [1] -0.045 | barasertib -0.047 | [2] -0.053 | volasertib 0.031 | [3] 0.018 | [4] -0.31 | [5] 0.048 | saracatinib 0.047 | sotrastaurin -0.043 | alvocidib -0.072 | Tubastatin A -0.047 | [6] 0.107 | defactinib 0.106 | [7] 0.085 | encorafenib 0.059 | [8] 0.241 | alisertib -0.026 | [9] 0 | gefitinib -0.116

ATF7 isoform 6 (UniProt P17544)
inactive: vemurafenib 0.06 | [1] -0.071 | barasertib -0.132 | [2] 0.019 | volasertib 0.005 | [3] 0.047 | [4] 0.181 | [5] -0.1 | saracatinib 0.072 | sotrastaurin 0.018 | alvocidib 0.06 | Tubastatin A 0.047 | [6] -0.049 | defactinib 0.034 | [7] 0.171 | encorafenib 0.01 | [8] 0.029 | alisertib 0.023 | [9] -0.059 | gefitinib -0.073

ASRGL1 (UniProt Q7L266)
inactive: vemurafenib 0 | [1] -0.015 | barasertib -0.053 | [2] 0.044 | volasertib 0.025 | [3] -0.023 | [4] 0.012 | [5] 0.05 | saracatinib -0.006 | sotrastaurin -0.03 | alvocidib -0.025 | Tubastatin A 0.039 | [6] -0.01 | defactinib -0.011 | [7] 0.053 | encorafenib -0.013 | [8] -0.04 | alisertib -0.004 | [9] 0.009 | gefitinib -0.051

ATP7A isoform 3 (UniProt Q04656)
inactive: vemurafenib -0.032 | [1] 0.002 | barasertib 0.025 | [2] 0.041 | volasertib -0.004 | [3] -0.009 | [4] -0.012 | [5] 0.032 | saracatinib 0.017 | sotrastaurin 0.028 | alvocidib -0.005 | Tubastatin A -0.004 | [6] 0.007 | defactinib -0.012 | [7] -0.041 | encorafenib 0.037 | [8] -0.003 | alisertib 0.011 | [9] 0.027 | gefitinib 0.01

2 successive entries out of the list so far, quoted:
ASRGL1 (UniProt Q7L266)
inactive: vemurafenib 0 | [1] -0.015 | barasertib -0.053 | [2] 0.044 | volasertib 0.025 | [3] -0.023 | [4] 0.012 | [5] 0.05 | saracatinib -0.006 | sotrastaurin -0.03 | alvocidib -0.025 | Tubastatin A 0.039 | [6] -0.01 | defactinib -0.011 | [7] 0.053 | encorafenib -0.013 | [8] -0.04 | alisertib -0.004 | [9] 0.009 | gefitinib -0.051

ATP7A isoform 3 (UniProt Q04656)
inactive: vemurafenib -0.032 | [1] 0.002 | barasertib 0.025 | [2] 0.041 | volasertib -0.004 | [3] -0.009 | [4] -0.012 | [5] 0.032 | saracatinib 0.017 | sotrastaurin 0.028 | alvocidib -0.005 | Tubastatin A -0.004 | [6] 0.007 | defactinib -0.012 | [7] -0.041 | encorafenib 0.037 | [8] -0.003 | alisertib 0.011 | [9] 0.027 | gefitinib 0.01

Additional records.

ATG2B (UniProt Q96BY7)
inactive: vemurafenib 0.043 | [1] 0.015 | barasertib 0.007 | [2] 0.023 | volasertib -0.013 | [3] 0.028 | [4] -0.016 | [5] -0.096 | saracatinib 0.003 | sotrastaurin 0.045 | alvocidib -0.009 | Tubastatin A -0.017 | [6] 0 | defactinib -0.018 | [7] -0.004 | encorafenib 0.035 | [8] -0.047 | alisertib -0.008 | [9] 0.002 | gefitinib -0.035

ATF7IP isoform 4 (UniProt Q6VMQ6)
inactive: vemurafenib -0.045 | [1] 0.051 | barasertib -0.042 | [2] 0.033 | volasertib -0.018 | [3] -0.021 | [4] 0.086 | [5] -0.037 | saracatinib 0.029 | sotrastaurin 0.027 | alvocidib -0.013 | Tubastatin A 0.04 | [6] -0.01 | defactinib -0.007 | [7] 0.041 | encorafenib -0.01 | [8] 0.042 | alisertib -0.03 | [9] 0.019 | gefitinib -0.027

ATP5PF isoform 2 (UniProt P18859)
active: [4] 0.663
inactive: vemurafenib 0.083 | [1] -0.023 | barasertib 0.064 | [2] 0.076 | volasertib 0.133 | [3] 0.076 | [5] -0.205 | saracatinib -0.024 | sotrastaurin -0.067 | alvocidib 0.203 | Tubastatin A 0.146 | [6] 0.042 | defactinib 0.071 | [7] -0.022 | encorafenib 0.014 | [8] -0.061 | alisertib -0.005 | [9] 0.01 | gefitinib -0.173

ATP2A2 (UniProt P16615)
inactive: vemurafenib -0.007 | [1] -0.014 | barasertib 0.056 | [2] -0.005 | volasertib -0.002 | [3] 0.016 | [4] -0.047 | [5] -0.018 | saracatinib 0.015 | sotrastaurin 0.018 | alvocidib -0.019 | Tubastatin A 0 | [6] -0.021 | defactinib 0.015 | [7] -0.037 | encorafenib 0.053 | [8] -0.155 | alisertib 0.033 | [9] 0.028 | gefitinib 0.021

ATPAF1 (UniProt Q5TC12)
inactive: vemurafenib -0.034 | [1] 0.009 | barasertib -0.018 | [2] 0.036 | volasertib -0.016 | [3] -0.003 | [4] 0.113 | [5] -0.083 | saracatinib 0.028 | sotrastaurin 0.001 | alvocidib 0.062 | Tubastatin A 0 | [6] -0.009 | defactinib -0.008 | [7] -0.02 | encorafenib 0.029 | [8] -0.053 | alisertib -0.056 | [9] 0.013 | gefitinib 0.007

ATP5PO (UniProt P48047)
inactive: vemurafenib -0.013 | [1] -0.01 | barasertib -0.024 | [2] 0.021 | volasertib 0.031 | [3] 0.015 | [4] 0.02 | [5] -0.009 | saracatinib -0.013 | sotrastaurin -0.015 | alvocidib 0.068 | Tubastatin A -0.001 | [6] -0.011 | defactinib 0.012 | [7] 0.014 | encorafenib -0.032 | [8] -0.043 | alisertib -0.007 | [9] 0.006 | gefitinib 0.007

ASCC2 (UniProt Q9H1I8)
inactive: vemurafenib 0.037 | [1] 0.069 | barasertib 0.025 | [2] -0.054 | volasertib -0.024 | [3] 0.007 | [4] 0.051 | [5] -0.103 | saracatinib 0.04 | sotrastaurin 0.027 | alvocidib -0.009 | Tubastatin A -0.105 | [6] 0.002 | defactinib 0 | [7] -0.003 | encorafenib 0.007 | [8] 0.037 | alisertib -0.014 | [9] 0.016 | gefitinib -0.057

AZI2 (UniProt Q9H6S1)
inactive: vemurafenib 0.019 | [1] -0.055 | barasertib 0.115 | [2] 0.032 | volasertib 0.092 | [3] -0.011 | [4] 0.122 | [5] -0.087 | saracatinib 0.009 | sotrastaurin 0.072 | alvocidib 0.188 | Tubastatin A 0.01 | [6] 0.114 | defactinib 0.08 | [7] 0.022 | encorafenib -0.029 | [8] 0.005 | alisertib 0.06 | [9] -0.048 | gefitinib -0.08

ATP1A4 (UniProt Q13733)
inactive: vemurafenib -0.036 | [1] 0 | barasertib -0.021 | [2] -0.045 | volasertib 0.002 | [3] 0.016 | [4] -0.024 | [5] 0.08 | saracatinib -0.023 | sotrastaurin -0.023 | alvocidib -0.018 | Tubastatin A 0.01 | [6] -0.064 | defactinib 0.018 | [7] -0.015 | encorafenib -0.023 | [8] 0 | alisertib -0.023 | [9] 0.021 | gefitinib 0.04
